The record followed here is patent US20230365714A1.

The chains behind the UniProt entries cited, without tags or fusion partners. Where a name states a change or a piece, a line headed by the entry shows the natural chain unless it says otherwise.
UniProt Q01974: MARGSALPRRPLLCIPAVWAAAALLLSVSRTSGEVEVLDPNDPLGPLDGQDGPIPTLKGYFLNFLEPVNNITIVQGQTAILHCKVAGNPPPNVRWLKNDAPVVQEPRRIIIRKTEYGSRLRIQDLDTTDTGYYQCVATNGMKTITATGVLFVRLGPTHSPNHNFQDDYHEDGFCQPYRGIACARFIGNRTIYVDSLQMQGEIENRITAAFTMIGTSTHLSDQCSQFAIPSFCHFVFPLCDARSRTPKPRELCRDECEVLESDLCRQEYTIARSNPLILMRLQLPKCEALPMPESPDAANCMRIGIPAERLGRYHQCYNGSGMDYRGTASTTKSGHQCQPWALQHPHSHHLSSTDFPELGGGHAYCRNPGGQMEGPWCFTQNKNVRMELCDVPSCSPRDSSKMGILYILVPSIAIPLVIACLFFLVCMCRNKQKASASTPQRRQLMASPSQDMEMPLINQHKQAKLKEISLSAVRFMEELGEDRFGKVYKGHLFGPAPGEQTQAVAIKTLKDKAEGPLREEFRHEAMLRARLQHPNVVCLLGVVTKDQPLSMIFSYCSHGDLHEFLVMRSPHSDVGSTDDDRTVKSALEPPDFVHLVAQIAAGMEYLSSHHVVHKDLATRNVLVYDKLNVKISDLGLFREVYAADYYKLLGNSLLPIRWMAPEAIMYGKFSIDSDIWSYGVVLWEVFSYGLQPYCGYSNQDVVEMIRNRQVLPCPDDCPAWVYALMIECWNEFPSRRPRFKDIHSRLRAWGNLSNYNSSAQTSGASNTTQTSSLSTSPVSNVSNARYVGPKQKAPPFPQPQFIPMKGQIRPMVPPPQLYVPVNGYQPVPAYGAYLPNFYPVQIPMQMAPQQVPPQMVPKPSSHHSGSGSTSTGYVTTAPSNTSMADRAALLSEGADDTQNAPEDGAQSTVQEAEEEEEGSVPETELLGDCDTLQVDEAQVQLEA

For test [1], the target named is human (Homo sapiens) ROR2, full length, on cells (human) (UniProt Q01974). The experiment in a line: flow cytometry on HeLa cells. (In flow cytometry, cells or beads pass a laser one at a time.)
For test [2] the target is unchanged. The experiment in a line: flow cytometry on Calu-1 cells with and without ablation of ROR2.

Results are given in words; binding and its absence hold for the method and conditions named. Some results given as binding are weak or reduced against the parent protein; the word gives no strength.

B1: chIgG1-ROR2-A (antibody, V domains shown)
VH: QSVEESGGRLVTPGTPLTLTCTVSGFSLSSYSMSWVRQAPGKGLEWIGVIYVNSKTWYANWAKGRFTISKTSTTVDLKITSPTTEDTATYFCARGDAGYTTNSWLWGPGTLVTVSS
VL: AFELTQTPASVSEPVGGTVTIKCQASESIDNYCSWYQQKPGQPPKLLIYQAFKLASGVPSRFRGSGSGTQFTLTISDLESDDAATYYCQSYSGISTTAFGGGTEVVVK
B1: the binding result in test [1] and in test [2] was “binds” in each case.
